Assay [1] deals with T1, UFBP1, endogenous (mouse (endogenous in MIN6)) (UniProt Q80WW9).
T1 sequence: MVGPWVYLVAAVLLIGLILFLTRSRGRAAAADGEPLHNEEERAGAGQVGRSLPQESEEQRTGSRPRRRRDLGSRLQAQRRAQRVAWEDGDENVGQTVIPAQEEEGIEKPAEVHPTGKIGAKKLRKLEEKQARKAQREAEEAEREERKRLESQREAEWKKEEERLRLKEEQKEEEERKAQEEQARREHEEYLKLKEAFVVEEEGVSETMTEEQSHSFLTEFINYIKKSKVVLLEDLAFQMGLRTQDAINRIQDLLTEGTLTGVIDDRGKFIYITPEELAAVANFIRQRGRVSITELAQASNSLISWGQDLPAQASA
The assay can be described thus: co-IP; cell lysates incubated with BiP, UFBP1 or UFM1 antibody, bound to protein A-TSK sepharose; SDS-PAGE and immunostaining.

By UniProt entry, the sequences of proteins in these tests, tags left out. Residues count along the entry.
UniProt P20029, residues 20-655: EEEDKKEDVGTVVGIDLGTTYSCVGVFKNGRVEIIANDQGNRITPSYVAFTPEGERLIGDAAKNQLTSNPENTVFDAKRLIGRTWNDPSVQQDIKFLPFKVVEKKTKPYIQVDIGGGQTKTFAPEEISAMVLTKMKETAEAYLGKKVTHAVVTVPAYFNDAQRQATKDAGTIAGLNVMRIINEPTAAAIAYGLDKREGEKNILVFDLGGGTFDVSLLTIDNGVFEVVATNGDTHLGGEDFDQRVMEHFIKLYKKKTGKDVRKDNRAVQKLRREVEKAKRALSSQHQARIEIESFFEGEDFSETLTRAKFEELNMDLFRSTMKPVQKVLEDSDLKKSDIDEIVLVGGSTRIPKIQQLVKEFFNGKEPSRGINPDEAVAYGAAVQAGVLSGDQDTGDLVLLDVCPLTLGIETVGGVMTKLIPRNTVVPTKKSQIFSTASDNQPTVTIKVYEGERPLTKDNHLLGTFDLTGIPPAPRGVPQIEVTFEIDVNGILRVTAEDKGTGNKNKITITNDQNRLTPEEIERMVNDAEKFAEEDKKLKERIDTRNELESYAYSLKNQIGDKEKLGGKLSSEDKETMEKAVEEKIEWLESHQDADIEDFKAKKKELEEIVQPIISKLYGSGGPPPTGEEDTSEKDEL

The target in the next assay is T2, CDK5RAP3-GST (mouse) (UniProt Q99LM2).
T2 sequence: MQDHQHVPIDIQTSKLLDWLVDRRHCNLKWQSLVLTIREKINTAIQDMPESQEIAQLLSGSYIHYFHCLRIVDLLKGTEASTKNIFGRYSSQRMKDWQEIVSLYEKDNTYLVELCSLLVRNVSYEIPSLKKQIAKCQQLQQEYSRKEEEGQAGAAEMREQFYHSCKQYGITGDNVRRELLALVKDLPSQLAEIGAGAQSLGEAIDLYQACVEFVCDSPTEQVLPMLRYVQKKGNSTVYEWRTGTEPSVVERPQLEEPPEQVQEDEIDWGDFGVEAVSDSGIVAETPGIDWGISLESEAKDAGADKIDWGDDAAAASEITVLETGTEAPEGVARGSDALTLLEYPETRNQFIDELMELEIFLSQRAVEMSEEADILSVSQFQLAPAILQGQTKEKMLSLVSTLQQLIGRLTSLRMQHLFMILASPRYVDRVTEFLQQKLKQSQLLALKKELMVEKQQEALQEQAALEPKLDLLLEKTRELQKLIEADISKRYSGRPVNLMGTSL
Description: pull-down; GST-UFM1(G), CDK5RAP3-GST or GST on glutathione-agarose beads; 35S-labelled in vitro translated proteins, pre-cleared on GST beads, added together with pre-cleared MIN6 lysate in ubiquitilation buffer (50 mM Tris pH 7.5, 100 mM NaCl, 0.1% NP40, 1 mM DTT, 2 mM ATP, 5 mM MgCl2), 30 min at 40°C as printed; phosphorimaging; only the target purified.

Assay [2] deals with T3, CDK5RAP3-GST (mouse), Q99LM2.
T3 chain: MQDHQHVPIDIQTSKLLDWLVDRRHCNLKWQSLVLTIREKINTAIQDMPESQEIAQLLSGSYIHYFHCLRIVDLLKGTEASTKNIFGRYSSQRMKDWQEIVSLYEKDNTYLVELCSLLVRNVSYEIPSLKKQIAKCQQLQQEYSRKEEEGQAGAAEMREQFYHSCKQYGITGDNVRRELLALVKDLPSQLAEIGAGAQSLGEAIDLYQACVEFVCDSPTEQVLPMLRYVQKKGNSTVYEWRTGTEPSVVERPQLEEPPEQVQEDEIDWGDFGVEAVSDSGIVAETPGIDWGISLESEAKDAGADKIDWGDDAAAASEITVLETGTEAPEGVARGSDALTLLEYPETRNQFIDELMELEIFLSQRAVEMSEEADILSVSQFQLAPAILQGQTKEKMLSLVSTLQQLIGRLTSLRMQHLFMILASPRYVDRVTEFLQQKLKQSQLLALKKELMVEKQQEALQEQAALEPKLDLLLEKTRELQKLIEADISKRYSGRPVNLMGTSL
Described as above. As to conditions: remark: other sources report otherwise.

Results are given in words; binding and its absence hold for the method and conditions named. In cells and extracts the contact can be indirect. Some results given as binding are weak or reduced against the parent protein; the word gives no strength. For part of these data: Tags and fused reporters may be left off the sequences shown.

Take “BiP (HSPA5), endogenous (from UniProt P20029 20-655)”: in assay [1], the binding entry is on record as “binds”.

B1: 35S-labelled mouse UFL1, in vitro translated (protein, UniProt Q8CCJ3 1-793)
chain: MADAWEEIRRLAADFQRAQFAESTQRLSERNCIEIVNKLISQKQLEVVHTLDGKEYITPAQISKEMRDELHVRGGRVNIVDLQQVINVDLTHIESRVSDIIKSEKHVQMVLGQLIDENYLDQLSEEVNDKLQESGQVTVSELCKAYDLPGDFLTQALTQRLGRIINGHLDLDNRGVIFTEAFVARHKARIRGLFSAITRPTPVNSLVSKYGFQEQLLYSVLEDLVSTGRLRGTVVGGRQDKAVFVPDIYSRTQSTWVDSFFRQNGYLEFDALSRLGIPDAVNYIKKRYKNTQLLFLKATCVGQGLVDQVEASVEEAISSGTWVDISPLLPSSLSVEDAAMLLQQVMRPFGKLASAIVFSDTVVVSEKFITDCTGLFSERMHQKAEKEMKNNPVHLITEEDLKQISILESVNTSKKDKKDERRKKATEGSGSVRGGGGGNAREYKIKKTKKKGRKDEDSDDESQSSHGGKKKPDITFMFQDEIEDCLRKHIQDAPEEFISELAEYLIKPLNKMYLEVVRSVFMSSTSASGTGRKRTIKDLQEEVSNLYNNIRLFEKGMKYFADDTQTALTKHLLKTVCTDITNLMFNFLASDFLMAVEEPAAITSDIRKKILSKLTEETKVALTKLHNSLNEKSIEDFLSCLDSATEACDIMVKKGDKKRERQILFQHRQALCEQLKVTEDPALILHLTAVLLFQLSTHSMLHAPGRCVPQIIAFLHSKIPEDQHTLLVKYQGLVVKQLVSQNKKTGQGEDPSSDELDKEQHDVTNATRKELQELSLSIKDLVLKSRKSSVTEE
modifications: 35S-methionine labelled
On to B1, for which, in the assay with CDK5RAP3-GST (mouse), the binding entry is “binds”.

B2: 35S-labelled mouse UFBP1 (UFM1-binding protein 1 containing a PCI domain), in vitro translated, Q80WW9 1-315 (protein)
chain: MVGPWVYLVAAVLLIGLILFLTRSRGRAAAADGEPLHNEEERAGAGQVGRSLPQESEEQRTGSRPRRRRDLGSRLQAQRRAQRVAWEDGDENVGQTVIPAQEEEGIEKPAEVHPTGKIGAKKLRKLEEKQARKAQREAEEAEREERKRLESQREAEWKKEEERLRLKEEQKEEEERKAQEEQARREHEEYLKLKEAFVVEEEGVSETMTEEQSHSFLTEFINYIKKSKVVLLEDLAFQMGLRTQDAINRIQDLLTEGTLTGVIDDRGKFIYITPEELAAVANFIRQRGRVSITELAQASNSLISWGQDLPAQASA
modifications: here or on the partner: 35S-methionine labelled
Turning to B2, in assay [2], the binding result was “no binding”.

The values are drawn from publication PMC3071830.
